Record: PubChem BioAssay AID1508597 (Cure First, 2020)
Shown is an unselected part of the about 2,100 reagents, in one setting of the screen. 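Calls flag viability under 80% in either arm, not effects specific to rucaparib; the reference for percent is not stated.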 A number with no mark means an inactive call. A reagent listed more than once was tested more than once; the source does not tell the runs apart. The record does not give: the 100% reference.

Purpose: 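Knock-downs altering ovarian cancer cell survival with or without PARP inhibitor rucaparib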 (primary screen)
Cell system: human ovarian carcinoma lines grown from tumours: OCI-P5x (papillary serous) and OCI-C5x (clear cell)
Reagent: siRNA pool against human genes, 1.25 pmol siRNA per well
Duration: 72 h or 96 h, depending on the cell culture
Conditions: rucaparib 20 µM (about IC30) or vehicle, present until read-out
Rucaparib or vehicle: Vehicle
Cell line: OCI-P5x (serous)
Detection: 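Luminescent ATP-based viability assay read 72 or 96 h after transfection, depending on culture, given as normalised percent viability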
Scale: viability, normalised: higher = more viable cells remaining
Hit rule: 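Active when normalised viability falls below 80 percent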
Calls: active = viability under 80%; inactive = viability 80% or more

gene knocked down | technical replicate | viability, normalised (%)
NRG1 (neuregulin 1) | 1 | 53.3 (active)
NRG1 (neuregulin 1) | 2 | 51.2 (active)
NRG1 (neuregulin 1) | 3 | 70.9 (active)
AK7 (adenylate kinase 7) | 1 | 67.8 (active)
AK7 (adenylate kinase 7) | 2 | 58.4 (active)
AK7 (adenylate kinase 7) | 3 | 57.9 (active)
MED29 (mediator complex subunit 29) | 1 | 65.5 (active)
MED29 (mediator complex subunit 29) | 2 | 51.9 (active)
MED29 (mediator complex subunit 29) | 3 | 65.6 (active)
TNK1 (tyrosine kinase non receptor 1) | 1 | 77 (active)
TNK1 (tyrosine kinase non receptor 1) | 2 | 67 (active)
TNK1 (tyrosine kinase non receptor 1) | 3 | 87.6
MAP4K4 (mitogen-activated protein kinase kinase kinase kinase 4) | 1 | 104
MAP4K4 (mitogen-activated protein kinase kinase kinase kinase 4) | 2 | 100
MAP4K4 (mitogen-activated protein kinase kinase kinase kinase 4) | 3 | 101
DICER1 (dicer 1, ribonuclease III) | 1 | 64.3 (active)
DICER1 (dicer 1, ribonuclease III) | 2 | 76.8 (active)
DICER1 (dicer 1, ribonuclease III) | 3 | 68.9 (active)
ERCC4 (ERCC excision repair 4, endonuclease catalytic subunit) | 1 | 69.8 (active)
ERCC4 (ERCC excision repair 4, endonuclease catalytic subunit) | 2 | 74.5 (active)
ERCC4 (ERCC excision repair 4, endonuclease catalytic subunit) | 3 | 69.5 (active)
MRGBP (MRG domain binding protein) | 1 | 47.3 (active)
MRGBP (MRG domain binding protein) | 2 | 47.9 (active)
MRGBP (MRG domain binding protein) | 3 | 67.4 (active)
ACVR1B (activin A receptor type 1B) | 1 | 105
ACVR1B (activin A receptor type 1B) | 2 | 92.8
ACVR1B (activin A receptor type 1B) | 3 | 98.1
SCYL1 (SCY1 like pseudokinase 1) | 1 | 73.5 (active)
SCYL1 (SCY1 like pseudokinase 1) | 1 | 49.4 (active)
SCYL1 (SCY1 like pseudokinase 1) | 2 | 59 (active)
SCYL1 (SCY1 like pseudokinase 1) | 2 | 73.9 (active)
SCYL1 (SCY1 like pseudokinase 1) | 3 | 62.7 (active)
SCYL1 (SCY1 like pseudokinase 1) | 3 | 74.3 (active)
SENP5 (SUMO specific peptidase 5) | 1 | 59.2 (active)
SENP5 (SUMO specific peptidase 5) | 2 | 49.3 (active)
SENP5 (SUMO specific peptidase 5) | 3 | 66.3 (active)

12 of these entries, set out differently.
gene knocked down	technical replicate	viability, normalised (%)
MAP4K4 (mitogen-activated protein kinase kinase kinase kinase 4)	2	100
MAP4K4 (mitogen-activated protein kinase kinase kinase kinase 4)	3	101
DICER1 (dicer 1, ribonuclease III)	1	64.3 (active)
DICER1 (dicer 1, ribonuclease III)	2	76.8 (active)
DICER1 (dicer 1, ribonuclease III)	3	68.9 (active)
ERCC4 (ERCC excision repair 4, endonuclease catalytic subunit)	1	69.8 (active)
ERCC4 (ERCC excision repair 4, endonuclease catalytic subunit)	2	74.5 (active)
ERCC4 (ERCC excision repair 4, endonuclease catalytic subunit)	3	69.5 (active)
MRGBP (MRG domain binding protein)	1	47.3 (active)
MRGBP (MRG domain binding protein)	2	47.9 (active)
MRGBP (MRG domain binding protein)	3	67.4 (active)
ACVR1B (activin A receptor type 1B)	1	105

The results go on.
gene knocked down | technical replicate | viability, normalised (%)
FANCB (FA complementation group B) | 1 | 76.2 (active)
FANCB (FA complementation group B) | 2 | 76.8 (active)
FANCB (FA complementation group B) | 3 | 75.6 (active)
MAPK15 (mitogen-activated protein kinase 15) | 1 | 88.1
MAPK15 (mitogen-activated protein kinase 15) | 2 | 80 (active)
MAPK15 (mitogen-activated protein kinase 15) | 3 | 88.4
TLR8 (toll like receptor 8) | 1 | 66.8 (active)
TLR8 (toll like receptor 8) | 2 | 80.6
TLR8 (toll like receptor 8) | 3 | 57.2 (active)
ALKBH3 (alkB homolog 3, alpha-ketoglutarate dependent dioxygenase) | 1 | 75.8 (active)
ALKBH3 (alkB homolog 3, alpha-ketoglutarate dependent dioxygenase) | 2 | 74.7 (active)
ALKBH3 (alkB homolog 3, alpha-ketoglutarate dependent dioxygenase) | 3 | 62.5 (active)
KLF1 (KLF transcription factor 1) | 1 | 56.6 (active)
KLF1 (KLF transcription factor 1) | 2 | 74.1 (active)
KLF1 (KLF transcription factor 1) | 3 | 110
WDR5 (WD repeat domain 5) | 1 | 56.7 (active)
WDR5 (WD repeat domain 5) | 2 | 58.4 (active)
WDR5 (WD repeat domain 5) | 3 | 57.9 (active)
AUNIP (aurora kinase A and ninein interacting protein) | 1 | 71.3 (active)
AUNIP (aurora kinase A and ninein interacting protein) | 2 | 39.8 (active)
AUNIP (aurora kinase A and ninein interacting protein) | 3 | 64.1 (active)
CENPE (centromere protein E) | 1 | 44.8 (active)
CENPE (centromere protein E) | 2 | 35.8 (active)
CENPE (centromere protein E) | 3 | 40.6 (active)
DDX19A (DEAD-box helicase 19A) | 1 | 89.4
DDX19A (DEAD-box helicase 19A) | 2 | 98.4
DDX19A (DEAD-box helicase 19A) | 3 | 87.2
KDM2A (lysine demethylase 2A) | 1 | 67.5 (active)
KDM2A (lysine demethylase 2A) | 2 | 92.2
KDM2A (lysine demethylase 2A) | 3 | 80.9
SUPT3H (SPT3 homolog, SAGA and STAGA complex component) | 1 | 40.1 (active)
SUPT3H (SPT3 homolog, SAGA and STAGA complex component) | 2 | 66 (active)
SUPT3H (SPT3 homolog, SAGA and STAGA complex component) | 3 | 65.5 (active)
PLCZ1 (phospholipase C zeta 1) | 1 | 65.8 (active)
PLCZ1 (phospholipase C zeta 1) | 2 | 73.9 (active)
PLCZ1 (phospholipase C zeta 1) | 3 | 67.7 (active)
DDX52 (DExD-box helicase 52) | 1 | 77.4 (active)
DDX52 (DExD-box helicase 52) | 2 | 79.4 (active)
DDX52 (DExD-box helicase 52) | 3 | 81.3
